Consider two substances from article PMC2740829.

Protein sequences, listed by entry. Tags and fused reporters are not part of them. Lines headed by an entry give the natural chain unless they say otherwise; changes in a name come on top. Residues count along the entry.
UniProt O43464: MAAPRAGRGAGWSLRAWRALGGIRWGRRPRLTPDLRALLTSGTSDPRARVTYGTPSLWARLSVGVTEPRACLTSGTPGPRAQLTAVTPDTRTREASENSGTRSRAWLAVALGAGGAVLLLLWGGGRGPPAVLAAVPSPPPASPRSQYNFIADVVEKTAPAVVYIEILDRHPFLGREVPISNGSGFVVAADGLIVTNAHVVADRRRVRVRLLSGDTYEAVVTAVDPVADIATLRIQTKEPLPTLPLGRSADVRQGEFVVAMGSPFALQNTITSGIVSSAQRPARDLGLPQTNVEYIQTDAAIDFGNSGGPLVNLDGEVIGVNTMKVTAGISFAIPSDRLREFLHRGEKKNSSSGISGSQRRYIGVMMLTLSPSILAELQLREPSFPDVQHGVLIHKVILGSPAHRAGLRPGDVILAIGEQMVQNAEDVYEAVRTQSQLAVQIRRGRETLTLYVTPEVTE
UniProt P30101, residues 25-505: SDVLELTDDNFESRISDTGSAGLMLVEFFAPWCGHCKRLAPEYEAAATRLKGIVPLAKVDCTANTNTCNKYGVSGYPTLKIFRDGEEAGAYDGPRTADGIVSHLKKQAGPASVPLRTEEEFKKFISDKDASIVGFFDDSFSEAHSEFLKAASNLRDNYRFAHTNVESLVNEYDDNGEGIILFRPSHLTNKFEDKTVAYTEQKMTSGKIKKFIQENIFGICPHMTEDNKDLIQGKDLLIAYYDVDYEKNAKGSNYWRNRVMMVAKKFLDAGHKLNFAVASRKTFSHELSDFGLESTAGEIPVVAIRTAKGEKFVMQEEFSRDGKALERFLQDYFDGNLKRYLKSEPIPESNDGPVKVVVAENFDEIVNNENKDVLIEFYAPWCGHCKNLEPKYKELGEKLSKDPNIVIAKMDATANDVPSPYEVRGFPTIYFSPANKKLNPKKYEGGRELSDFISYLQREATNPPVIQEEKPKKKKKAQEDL
UniProt P11142: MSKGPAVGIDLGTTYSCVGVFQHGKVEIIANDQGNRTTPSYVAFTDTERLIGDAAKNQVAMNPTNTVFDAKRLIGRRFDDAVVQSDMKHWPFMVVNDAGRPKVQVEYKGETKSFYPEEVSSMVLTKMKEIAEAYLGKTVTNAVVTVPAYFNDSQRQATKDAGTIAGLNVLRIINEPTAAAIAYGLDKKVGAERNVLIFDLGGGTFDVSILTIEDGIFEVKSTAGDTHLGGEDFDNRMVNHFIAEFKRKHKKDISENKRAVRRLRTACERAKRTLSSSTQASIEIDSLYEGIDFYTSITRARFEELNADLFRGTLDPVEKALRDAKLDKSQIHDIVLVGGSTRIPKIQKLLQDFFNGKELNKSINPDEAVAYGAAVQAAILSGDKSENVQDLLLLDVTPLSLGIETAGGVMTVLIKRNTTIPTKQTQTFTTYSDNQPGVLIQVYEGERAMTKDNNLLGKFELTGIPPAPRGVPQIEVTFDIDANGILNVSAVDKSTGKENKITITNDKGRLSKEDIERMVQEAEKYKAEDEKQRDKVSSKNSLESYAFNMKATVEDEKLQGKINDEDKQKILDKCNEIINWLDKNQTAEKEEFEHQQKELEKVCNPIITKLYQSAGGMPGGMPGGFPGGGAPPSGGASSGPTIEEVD

Results are given in words; binding and its absence hold for the method and conditions named. Binding seen in cells or lysates may run through a third protein. Here binding means that the protein was enriched with, or labelled near, the bait; the list need not be complete.

The target of the experiment is FLAG-tagged OMI protease mutant S306C (inactive active site) (UniProt O43464). Put plainly: affinity purification with mass spectrometry; FLAG-tagged OMI mutants immunoprecipitated with anti-FLAG affinity gel beads from Triton X-100 solubilised mitochondria of transfected HEK293 cells; IEF/2D gel, silver stain; spots seen with S306C but not with S306C/G399S cored, in-gel trypsin digestion and tandem MS.

Regarding “PDIA3 N-terminal of the glycoprotein chaperone ERp57 (chain A), endogenous (from UniProt P30101 25-505)”, the binding entry is reported as “binds”.
With “HSPA8 Heat shock cognate 71 kDa protein (Heat shock 70 kDa protein 8), endogenous (from UniProt P11142 1-646)” the entry was “binds”.
